This is one part of the list. These are further read-outs of the screen, such as a control signal, another cell line or another target. No call is given for them. Most of these compounds were active or inconclusive in the main read-out, so they are no random draw. The note in brackets gives the kind of curve behind each potency; many fits are weak.
Experiment: qHTS Assay for Lipid Storage Modulators in Drosophila S3 Cells;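 on cell number change: cells counted by Cell Tracker Red CMTPX staining in the red channel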
Settings: BODIPY lipid droplet fluorescence, 18-24 h; for cell number change: measured here: cell count max response, cells fed with added oleic acid
Method in brief: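 Laser-scanning cytometry quantifies lipid droplet accumulation (500–530 nm total intensity; droplet/cell object ratio) in oleic acid-fed (400 uM added) Drosophila S3 cells treated with a concentration series. 20 uM Triacsin C defined 100% inhibition.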

[1] = measured here: lipid fluorescence (Fed channel) AC50, cells fed with added oleic acid
[2] = measured here: cell number channel AC50, cells fed with added oleic acid

| Compound | cell number change | AC50 [1] | AC50 [2] |
| --- | --- | --- | --- |
| COc1ccc(/C=C/c2nnc(NC(=O)c3ccco3)s2)cc1 | 25.4% | 0.00517 µM [rising, full curve, poor fit] |  |
| Cn1c(=O)c2c(nc(Oc3ccc4ccccc4c3)n2C)n(C)c1=O |  | 29.1 µM [rising, single point] | 0.146 µM [rising, full curve, poor fit] |
| Cc1c(C(=O)NCC2CCCO2)oc2ccc3c(c12)C(=O)CC(C)(C)O3 (configuration not stated) | -22.8% | 16.4 µM [falling, single point] |  |
| Cc1ccc(NC(=O)CCC(=O)N2CCN(S(=O)(=O)c3ccc(C)cc3)CC2)cc1 | 1.17% | 0.461 µM [falling, full curve] |  |
| CCOC(=O)N1CCC(NC(=O)c2cnn3c2NC(c2ccco2)CC3C(F)(F)F)CC1 (configuration not stated) | 54.2% | 23.1 µM [falling, single point] | 23.1 µM [rising, single point] |
| CCOC(=O)c1c(NC(=O)CSc2nc3c(c(=O)n(C)c(=O)n3C)n2CC)sc(C)c1C | 25.3% | 0.092 µM [rising, full curve, poor fit] |  |
| CC(Sc1nccn1C)C(=O)c1c(N)n(C)c(=O)n(C)c1=O (configuration not stated) | -25% | 0.0651 µM [falling, full curve, poor fit] | 0.00517 µM [falling, full curve, poor fit] |
| CN(Cc1cnccn1)C(=O)CC1C(=O)NCCN1Cc1cccc(Oc2ccccc2)c1 (configuration not stated) | 23.6% |  |  |
| Cc1ccc(NC(=S)N2CCN(c3ccccn3)CC2)c(C)c1 | 5.85% |  | 0.461 µM [falling, single point] |
| Cc1nc(COc2ccc(C(=O)NCc3ccccc3CN3CCCCC3)cc2)cs1 | 11.5% | 0.00731 µM [falling, full curve, poor fit] |  |
| CCOc1ccc(C(=O)CCN2CCOCC2)cc1 | -18.2% | 18.4 µM [falling, single point] |  |
| O=C(/C=C/c1ccc(Br)cc1)NC(=O)c1ccccc1O | 9.91% | 0.411 µM [rising, full curve, poor fit] |  |
| COc1ccc(CCNC(=O)C2CCN(S(=O)(=O)N3CCCCCC3)CC2)cc1OC |  |  | 0.0651 µM [falling, full curve, poor fit] |
| CC1(CCc2ccccc2)NC(=O)N(CC(=O)N2CCCCCC2)C1=O (configuration not stated) | -5.72% |  |  |
| Cc1nnc(SCc2ccc(C(=O)Nc3cc(Cl)ccc3C)cc2)s1 | 19.1% | 0.0517 µM [rising, full curve, poor fit] |  |
| O=C(N/N=C/c1ccc([N+](=O)[O-])o1)c1cn(-c2ccccc2)nc1-c1ccc(Cl)cc1 | -35% |  |  |
| CN1C2CCC1CC(NS(=O)(=O)c1cccc(C(F)(F)F)c1)C2 (configuration not stated) | 18.6% | 0.116 µM [rising, full curve, poor fit] |  |
| CNS(=O)(=O)c1cccc(C(=O)OCC(=O)Nc2ccccc2OC(F)F)c1 | -6.78% |  |  |
| CCCS(=O)(=O)N1CCC(C(=O)NCCCN(CC)c2cccc(C)c2)CC1 |  | 1.84 µM [rising, partial curve] | 1.64 µM [rising, partial curve] |
| CCOC(=O)C1=C(C)OC(N)=C(C#N)C1c1cncc(-c2ccc(F)cc2)c1 (configuration not stated) | 17.8% | 6.51 µM [rising, single point] |  |
| O=C(Nc1ccccc1C(=O)N1CCCCCC1)c1cccc([N+](=O)[O-])c1 | -22.8% | 1.64 µM [rising, partial curve, poor fit] |  |

| Compound | cell number change | AC50 [1] | AC50 [2] |
| --- | --- | --- | --- |
| Cc1nn(-c2ccccc2)c(C)c1-c1ccccc1O |  | 11.6 µM [falling, single point] |  |
| CN(c1ccccc1)S(=O)(=O)c1ccc(Cl)c(C(=O)OCC(=O)N2CCOCC2)c1 | -2.88% |  |  |
| CSc1nc(C)c(C(=O)Nc2ccccc2)c(-c2ccco2)c1C#N | 8.99% | 20.6 µM [rising, partial curve, poor fit] |  |
| Cc1ccc(S(=O)(=O)N2CCN(C(=O)C3CC(=O)N(c4ccc5c(c4)OCCO5)C3)CC2)cc1 (configuration not stated) | -9.09% |  |  |
| CC(=O)c1ccccc1OCC(O)CN1CCN(CCN2C(=O)c3cccc4cccc(c34)C2=O)CC1 (configuration not stated) | 89.2% |  | 23.1 µM [rising, partial curve] |
| COc1ccc2nc(CNC(=O)C3CCC(=O)N(CCc4ccccc4)C3)[nH]c2c1 (configuration not stated) | 19.6% | 82 µM [rising, partial curve] |  |
| CCOc1cc2[nH]c(=S)n(CCc3ccc(OC)c(OC)c3)c(=O)c2cc1OCC |  | 3.26 µM [falling, single point] | 1.84 µM [rising, partial curve] |
| Cc1cc(Br)cc2c(C(=O)Nc3c(C)n(C)n(-c4ccccc4)c3=O)cc(-c3cccs3)nc12 |  | 0.58 µM [falling, single point] |  |
| CC(=O)Nc1ccc(S(=O)(=O)N(C)CC(=O)OCC(=O)NCc2ccco2)cc1 | -21% |  | 0.184 µM [falling, full curve, poor fit] |
| CCc1ncc(C)[nH]1 | 26.5% | 0.116 µM [rising, full curve, poor fit] |  |
| C[C@H](NC(=O)c1[nH]cnc1C(=O)N[C@H](C)c1ccccc1)c1ccccc1 | -40% | 29.1 µM [falling, single point] | 18.4 µM [falling, single point] |
| CC1(C)Cc2c(cnn2-c2ccc(F)cc2)C(NC(=O)CCC(F)(F)F)C1 (configuration not stated) | -18.4% | 29.1 µM [falling, single point] |  |
| Cc1cc(C)c2c(n1)SCC(=O)N2CC(=O)Nc1cc(F)ccc1F | 0.865% | 29.1 µM [rising, single point] |  |
| COc1cc(OC)cc(C(=O)Nc2ccc(N3CCN(C(=O)c4cccs4)CC3)cc2)c1 | -19.9% |  |  |
| O=C(c1csc2ccccc12)n1cccn1 | -128% | 0.411 µM [falling, single point] |  |
| O=C(COc1ccccc1Cl)NC(=O)NC1CCCC1 | 57.8% | 0.58 µM [rising, single point] | 0.206 µM [rising, full curve, poor fit] |
| CC12CCC(=O)N1C(C(=O)O)Cc1c2[nH]c2ccccc12 (configuration not stated) | -1.99% | 9.2 µM [falling, partial curve, poor fit] |  |
| CCn1ccc2cc(OC)ccc2c1=S |  | 0.00461 µM [falling, full curve, poor fit] |  |
| Cc1ccc(S(=O)(=O)N2CCC(C(=O)NCCc3ccccc3)CC2)cc1 |  | 0.651 µM [falling, single point] |  |
| COC(=O)c1ccc(-c2sc3nc(N4CCOCC4)c4c(c3c2N)CC(C)(C)OC4)o1 | -7.58% | 0.00461 µM [rising, full curve] |  |
| Cc1cc(OCc2ccc(C(=O)NN=C3CCCC3)cc2)ccc1Cl | 2.69% | 0.58 µM [rising, single point] |  |

| Compound | cell number change | AC50 [1] | AC50 [2] |
| --- | --- | --- | --- |
| C=CCN(C(=O)CCC(=O)Nc1cc(C)on1)C(C(=O)NC1CCCC1)c1ccc(C)cc1 (configuration not stated) | 2.25% |  |  |
| Cc1cnc(CN(C)C(=O)c2ccc3oc(Cc4ccccc4)nc3c2)[nH]1 | 1.73% | 1.84 µM [rising, partial curve, poor fit] |  |
| COc1ccc(NC(=O)CC(C)CC(=O)NCc2ccc(F)cc2)c(OC)c1 (configuration not stated) | -18.9% |  |  |
| CCOC(=O)N1CCN(C(=O)COc2cc(=O)n(C)c3ccccc23)CC1 | 160% |  | 20.6 µM [rising, single point] |
| CCOc1cc(CN2CCN(C(=O)c3cccc4ccccc34)CC2)ccc1OC | -15.2% | 29.1 µM [falling, single point] |  |
| CC(CCc1ccccc1)NC(=O)CN1C(=O)NC2(CCCCC2C)C1=O (configuration not stated) | -12.3% |  |  |
| COc1ccc(-n2c(SCC(=O)N3CCCCC3)nnc2-c2cccnc2)cc1 | 26.7% | 0.13 µM [rising, full curve, poor fit] |  |
| CCCN1C(=O)/C(=C/c2c(NCCCOCC)nc3c(C)cccn3c2=O)SC1=S | 0.909% | 4.61 µM [rising, partial curve, poor fit] |  |
| NC(=O)C1CCN(C(=O)NC2CC(=O)N(c3ccc4c(c3)OCCO4)C2)CC1 (configuration not stated) | -18.5% |  |  |
| COCCn1ccc2c(OCC(=O)NCc3ccc(C)cc3)cccc2c1=O |  | 6.51 µM [rising, single point] |  |
| Cc1cccc(NC(=O)NNC(=O)c2sccc2-n2cccc2)c1 | -12.2% | 3.66 µM [falling, single point] |  |
| CC(C)CCn1nc(C(=O)OC(C)C(=O)NC(N)=O)c2ccccc2c1=O (configuration not stated) | 13.4% |  | 0.00461 µM [rising, full curve, poor fit] |
| Cc1ccc(NC(=O)c2snc3ccc(Cl)cc23)cc1C | -0.905% | 29.1 µM [falling, single point] |  |
| CCOC(=O)C1(CCOC)CCN(CC(C)Cc2ccc3c(c2)OCO3)CC1 (configuration not stated) | 16.2% | 29.1 µM [rising, single point] |  |
| Cn1c(=O)c(=O)n(C)c2cc(N3CCCC3)c(NS(=O)(=O)c3ccc(F)cc3)cc21 | -8.56% | 0.00461 µM [falling, full curve, poor fit] |  |
| CCOC(=O)N1CCN(c2ccccc2OC)CC1 | 27.1% | 9.2 µM [rising, partial curve, poor fit] |  |
| CCOC(=O)c1cnc2c(Cl)c(Cl)ccc2c1NCCN1CCOCC1 | 24.3% |  |  |
| CCc1ccc(S(=O)(=O)N2CCCC(N3CCN(c4ccc(OC)cc4)CC3)C2)cc1 (configuration not stated) | -13.6% |  |  |
| COc1cc(NS(=O)(=O)c2c(C)oc3c(F)c(F)c(F)c(F)c23)cc(OC)c1OC | 1.83% | 1.3 µM [falling, partial curve] |  |

Single entries from above:
cell number change, Cc1cnc(CN(C)C(=O)c2ccc3oc(Cc4ccccc4)nc3c2)[nH]1 is entered as 1.73%
cell number change, CCCN1C(=O)/C(=C/c2c(NCCCOCC)nc3c(C)cccn3c2=O)SC1=S is entered as 0.909%
cell number change, C=CCN(C(=O)CCC(=O)Nc1cc(C)on1)C(C(=O)NC1CCCC1)c1ccc(C)cc1 (configuration not stated) is entered as 2.25%
cell number change, CCc1ccc(S(=O)(=O)N2CCCC(N3CCN(c4ccc(OC)cc4)CC3)C2)cc1 (configuration not stated) is entered as -13.6%
AC50 [1], CCOC(=O)C1(CCOC)CCN(CC(C)Cc2ccc3c(c2)OCO3)CC1 (configuration not stated) is entered as 29.1 µM [rising, single point]

From PubChem BioAssay AID2685 (National Center for Advancing Translational Sciences (NCATS), 2010)
